{"source": "paper PMC11211491", "about": "“Design of a covalent protein-protein interaction inhibitor of SRPKs to suppress angiogenesis and invasion of cancer cells” (Communications Chemistry, 2024)", "binders": {"B1": {"name": "DBS1-2 (peptide)", "peptide": "RERARTRRERARTRERARTR", "modifications": "E9 side chain esterified with 4-nitrophenol; N-terminal acetyl; C-terminal amide"}}, "target": "SRPK1ΔNS3", "test": "covalent adduct formation assay (SDS-PAGE band shift); 8 μM peptide added to 2 μM protein (1:4 protein:peptide) in 50 mM HEPES pH 7.5, 150 mM NaCl, 5% glycerol, 1 mM benzamidine for the indicated times; SDS-PAGE, Coomassie Blue; both purified", "note": "No constants are given. Whether binding was seen depends on the method and setting. Binding can be weak; no strength is given."}
{"binder": "B1", "values": [{"measurement": "binding", "value": "binds"}]}
